These results are taken from publication PMC11749561.

The chains behind the UniProt entries cited, without tags or fusion partners.
UniProt O96017: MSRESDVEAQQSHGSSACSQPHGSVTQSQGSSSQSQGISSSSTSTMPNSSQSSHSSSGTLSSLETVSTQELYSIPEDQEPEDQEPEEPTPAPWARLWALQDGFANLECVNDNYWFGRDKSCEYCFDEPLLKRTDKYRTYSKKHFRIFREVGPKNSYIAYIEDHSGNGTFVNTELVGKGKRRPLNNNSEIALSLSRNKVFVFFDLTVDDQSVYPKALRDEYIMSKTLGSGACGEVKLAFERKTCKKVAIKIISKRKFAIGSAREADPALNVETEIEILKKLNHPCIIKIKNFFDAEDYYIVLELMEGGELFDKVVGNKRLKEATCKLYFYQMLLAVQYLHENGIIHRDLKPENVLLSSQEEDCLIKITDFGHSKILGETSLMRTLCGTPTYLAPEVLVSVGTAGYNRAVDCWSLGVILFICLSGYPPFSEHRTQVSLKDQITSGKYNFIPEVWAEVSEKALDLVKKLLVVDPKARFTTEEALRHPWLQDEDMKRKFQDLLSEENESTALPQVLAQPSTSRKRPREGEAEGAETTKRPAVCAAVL
UniProt O00327: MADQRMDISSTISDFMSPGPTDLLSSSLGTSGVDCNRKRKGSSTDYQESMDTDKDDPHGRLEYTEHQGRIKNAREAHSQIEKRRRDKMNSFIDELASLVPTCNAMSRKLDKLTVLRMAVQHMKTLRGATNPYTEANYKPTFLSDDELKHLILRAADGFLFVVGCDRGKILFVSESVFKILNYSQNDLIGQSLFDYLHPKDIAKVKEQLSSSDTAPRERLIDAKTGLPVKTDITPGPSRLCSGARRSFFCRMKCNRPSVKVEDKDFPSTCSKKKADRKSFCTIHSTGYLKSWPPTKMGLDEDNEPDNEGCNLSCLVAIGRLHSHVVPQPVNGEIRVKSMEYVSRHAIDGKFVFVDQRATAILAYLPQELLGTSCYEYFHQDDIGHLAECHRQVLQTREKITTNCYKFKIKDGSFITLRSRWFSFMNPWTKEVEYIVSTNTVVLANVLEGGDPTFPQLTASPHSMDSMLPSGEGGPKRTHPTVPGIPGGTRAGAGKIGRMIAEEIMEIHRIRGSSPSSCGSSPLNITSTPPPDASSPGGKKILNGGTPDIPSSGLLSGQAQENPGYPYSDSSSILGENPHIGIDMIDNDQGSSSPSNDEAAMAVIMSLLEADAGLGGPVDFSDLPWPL

No constants are given. Whether binding was seen depends on the method and setting. Binding seen in cells or lysates may run through a third protein. Some binding calls cover weakened binding; strength is not graded here.

In one test the target is checkpoint kinase CHK2 (UniProt O96017). The test can be described thus: co-IP; in HEK293T cells; untreated or at the indicated time points post 8 Gy X-irradiation; with or without the CHK2 inhibitor BML-277 (20 min post 8 Gy); bait not stated.
The target in test [1] is brain and muscle ARNT-like 1 (BMAL1) (UniProt O00327). Described as above.

With “brain and muscle ARNT-like 1 (BMAL1) (from UniProt O00327 1-626)”, the binding result in the test with checkpoint kinase CHK2 is recorded as “no binding”.

B1: circadian locomotor output cycles kaput (CLOCK) (protein, UniProt O15516 1-846)
chain: MLFTVSCSKMSSIVDRDDSSIFDGLVEEDDKDKAKRVSRNKSEKKRRDQFNVLIKELGSMLPGNARKMDKSTVLQKSIDFLRKHKEITAQSDASEIRQDWKPTFLSNEEFTQLMLEALDGFFLAIMTDGSIIYVSESVTSLLEHLPSDLVDQSIFNFIPEGEHSEVYKILSTHLLESDSLTPEYLKSKNQLEFCCHMLRGTIDPKEPSTYEYVKFIGNFKSLNSVSSSAHNGFEGTIQRTHRPSYEDRVCFVATVRLATPQFIKEMCTVEEPNEEFTSRHSLEWKFLFLDHRAPPIIGYLPFEVLGTSGYDYYHVDDLENLAKCHEHLMQYGKGKSCYYRFLTKGQQWIWLQTHYYITYHQWNSRPEFIVCTHTVVSYAEVRAERRRELGIEESLPETAADKSQDSGSDNRINTVSLKEALERFDHSPTPSASSRSSRKSSHTAVSDPSSTPTKIPTDTSTPPRQHLPAHEKMVQRRSSFSSQSINSQSVGSSLTQPVMSQATNLPIPQGMSQFQFSAQLGAMQHLKDQLEQRTRMIEANIHRQQEELRKIQEQLQMVHGQGLQMFLQQSNPGLNFGSVQLSSGNSSNIQQLAPINMQGQVVPTNQIQSGMNTGHIGTTQHMIQQQTLQSTSTQSQQNVLSGHSQQTSLPSQTQSTLTAPLYNTMVISQPAAGSMVQIPSSMPQNSTQSAAVTTFTQDRQIRFSQGQQLVTKLVTAPVACGAVMVPSTMLMGQVVTAYPTFATQQQQSQTLSVTQQQQQQSSQEQQLTSVQQPSQAQLTQPPQQFLQTSRLLHGNPSTQLILSAAFPLQQSTFPQSHHQQHQSQQQQQLSRHRTDSLPDPSKVQPQ
As to B1, the binding entry (in test [1]; with checkpoint kinase CHK2) was “binds” each time.
